Data on 2 substances can be found in patent publication US9238697B2 (The Regents of the University of California, priority 2005, dated 2016).

The data set can be described thus: general procedure: solution-phase peptide synthesis; EDC/HOBt.

*: point of attachment. Cbz = O=C(OCc1ccccc1)*; Boc = CC(C)(C)OC(=O)*

Regarding Boc-K(Cbz)K(Boc)K(Boc)K(Cbz)-OMe, for the setting “coupling step”, the step yield stood at 59% yield.

In the case of “(Boc)Lys(Z)-His(Boc)-Lys(Boc)-Lys(Boc)-Lys-OMe”, the difficulty met result (late stage modification step) is “the compound had lost some Boc protecting group”.
